Measurements published in PubChem BioAssay AID1439 (NMMLSC, 2008).
Screen size: about 220,000 compounds; about 770 (0.35%) were called active. The shares of active, inactive and inconclusive entries below differ from those in the screen. Cut-off read from the data, not from the text of the source: active = binding response below about 49% or above about 150%; inconclusive = no clear call, values can overlap the other calls; inactive = in between.

Chains of the proteins cited; added tags and fusions are not shown.
UniProt P09471, whole entry, looked up: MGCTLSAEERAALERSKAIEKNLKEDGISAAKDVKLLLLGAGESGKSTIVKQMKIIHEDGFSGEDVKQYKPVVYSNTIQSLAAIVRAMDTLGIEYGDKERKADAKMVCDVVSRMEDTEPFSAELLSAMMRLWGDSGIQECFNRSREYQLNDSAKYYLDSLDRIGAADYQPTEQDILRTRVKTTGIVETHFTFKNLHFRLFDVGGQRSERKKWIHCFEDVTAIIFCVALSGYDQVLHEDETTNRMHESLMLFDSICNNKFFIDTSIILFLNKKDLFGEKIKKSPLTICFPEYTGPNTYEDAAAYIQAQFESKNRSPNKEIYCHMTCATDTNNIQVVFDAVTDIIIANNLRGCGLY

target: Guanine nucleotide-binding protein G(o) subunit alpha (Homo sapiens) (UniProt P09471); assay: RGS7-Galphao binding modulators, primary screen, biochemical, multiplexed bead flow cytometry (AID 1439); conditions: at 10 µM, actives lie on both sides;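 note: fluorescent Galphao held in activated GDP-AlF4 state binding bead-coupled RGS7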

SMILES	binding response (% of control)
Cn1c(=O)c(=O)n(C)c2cc([N+](=O)[O-])c([N+](=O)[O-])cc21	inconclusive: 101%
COc1cc(CC(=O)OCC(=O)Nc2cc([N+](=O)[O-])ccc2Cl)cc(OC)c1OC	inactive: 98%
COC(=O)c1ccc(COc2ccccc2/C=N/O)o1	inconclusive: -14.9%
COC(=O)C(CCSC)NC(=O)/C=C/c1ccc(OC)cc1 (stereo not given)	inconclusive: 111%
COc1ccc(C2=NNC(c3cc(Cl)cc4c3OCOC4)C2)c(O)c1 (stereo not given)	inconclusive: 145%
C=CCn1c(SCc2ccccc2Cl)nnc1-c1sc2nc(C)cc(C)c2c1N	inconclusive: 50.5%
NC(=O)NC(=O)COC(=O)[C@H](Cc1ccccc1)NC(=O)c1cccs1	inconclusive: 86.5%
CN(C)CCOC(=O)CCCCCCCCC(=O)OCCN(C)C	inconclusive: 97.3%
CCC(C)NC(=O)C1CCN(S(=O)(=O)N2CCC3(CC2)OCCO3)CC1 (stereo not given)	inconclusive: 123%
CCCCNC(=O)c1c[nH]c2ccc(S(=O)(=O)N3CCOCC3)cc2c1=O	inconclusive: 70.1%
COC(=O)COc1cccc(NC(=O)c2cc(OC)cc(OC)c2)c1	inconclusive: 80.5%
COc1ccc(O)c(C(=O)c2cnn(C(=O)c3cccc(S(=O)(=O)N4CCOCC4)c3)c2)c1	inconclusive: 81.4%
CCOC(=O)c1cn2nc(Oc3cccc(F)c3)ccc2n1	inconclusive: 96.4%
Cc1cc(C)cc(NC(=O)c2nccnc2C(=O)O)c1	inactive: 100%
COc1cc(C(=O)O/N=C(\N)c2ccccn2)cc(OC)c1OC	inconclusive: 93.1%
CC1CC(C)(C)NC(=S)N1CC(=O)N1CCN(Cc2ccc3c(c2)OCO3)CC1 (stereo not given)	inconclusive: 115%
COc1ccccc1CNC(=O)C(=O)NCC1OCCN1S(=O)(=O)c1cccs1 (stereo not given)	inconclusive: 69.2%
Cc1nc([N+](=O)[O-])cn1CC(O)c1ccccc1 (stereo not given)	inconclusive: 103%
Cc1ccc(CCNC(=O)C2CC(c3ccccc3C(F)(F)F)=NO2)cc1 (stereo not given)	inconclusive: 87.2%
O=C(CSc1nnc(Cc2ccsc2)o1)c1ccccc1	inconclusive: 98.5%
COC(=O)c1ccc(-c2ccc(C(=O)N3CCCN(C)CC3)cc2)cc1	inactive: 103%
O=C(O)Cc1sc(NCc2ccco2)nc1-c1ccccc1	inconclusive: 93.9%
COc1ccc(CCN(Cc2cc3ccc(C)cc3[nH]c2=O)C(C)=O)cc1OC	inconclusive: 120%

SMILES	binding response (% of control)
COc1ccccc1-c1coc2cc(OC(=O)N3CCOCC3)ccc2c1=O	inconclusive: 101%
Cc1cc(C(=O)C(=O)N(C)C)c(C)n1-c1ccc(Cl)cc1	inconclusive: 91.7%
CCCCn1c(N)c(N(CC)C(=O)c2cc(Br)ccc2Cl)c(=O)[nH]c1=O	inconclusive: 111%
Cc1cc2c3ccccc3ncn2n1	inconclusive: 142%
Cc1cccc(C(=O)Nc2sc(-c3ccccc3)cc2C(=O)O)c1	inconclusive: 95%
CCN(CC)S(=O)(=O)c1ccc(N2CCOCC2)c(NC(=O)C(C)(C)C)c1	inconclusive: 59.2%
Nc1nc(NCc2ccco2)nc(Nc2ccccc2)c1[N+](=O)[O-]	inconclusive: 116%
COc1cccc(C(=O)N2CCCC(CCC(=O)NCc3ccc(F)c(F)c3)C2)c1 (stereo not given)	inconclusive: 101%
O=C(N/N=C/c1ccc(OCc2ccccc2)cc1)c1ccco1	inconclusive: 81.5%
CN(C)C(=O)CSc1nc2ccccc2c(=O)[nH]1	active: 277% [activator]
Cc1cccc(C)c1Nc1c(-c2ccc(N3CCOCC3)cc2)nc2cnccn12	inconclusive: 32.4%
O=C(CC1SC(N2CCOCC2)=NC1=O)Nc1cc([N+](=O)[O-])ccc1Cl (stereo not given)	inconclusive: 92.6%
CCOC(=O)CC1COCCN1C(=O)CCc1nnc(-c2ccsc2)o1 (stereo not given)	inactive: 97.3%
O=C(COc1ccc(Br)cc1)Nc1ccc(Cc2ccncc2)cc1	inactive: 101%
CC(C)n1c(-c2cccnc2)nc2cnccc21	inactive: 121%
FC(F)Sc1nc(-c2ccccc2)c(-c2ccccc2)n1C(F)F	active: 174% [activator]
O=C(Oc1c(-c2ccccc2)c(=O)n2c3c(cccc13)CC2)c1ccccc1	inconclusive: 182%
COc1cccc2c1OCC(CN1CCN(C3CCCCC3)C(CCO)C1)=C2 (stereo not given)	inactive: 103%
Cc1ccsc1/C=N/Nc1ccc(Cl)nn1	inconclusive: 147%
CCN(CC)S(=O)(=O)c1cc(NC(=O)CNc2c(C)n(C)n(-c3ccccc3)c2=O)ccc1C	inconclusive: 101%
CCCCNc1nc2c(c(=O)n(C)c(=O)n2C)n1CCC	inconclusive: 104%
COc1ccc(CN2C(=O)c3oc4ccccc4c(=O)c3C2c2ccc(O)c(OC)c2)cc1 (stereo not given)	inconclusive: 161%

Rewritten with bars between the fields: two of the compounds above
SMILES | binding response (% of control)
Nc1nc(NCc2ccco2)nc(Nc2ccccc2)c1[N+](=O)[O-] | inconclusive: 116%
CN(C)C(=O)CSc1nc2ccccc2c(=O)[nH]1 | active: 277% [activator]
